The target of this assay is receptor for advanced glycation end products (RAGE) (rat (endogenous in ASMC)) (UniProt Q63495). Description: co-IP; 0.5 mg of ASMC cell lysate incubated overnight with RAGE antibody (ab216329) or caspase-8 antibody (#9746), protein A/G agarose beads, Western blot; cells treated for 24 h with vehicle (PBS), HG, AGEs, S100B or S100A6. On the technique in general: Immunoblotting shows a protein as a band on a membrane.

The chains behind the UniProt entries cited, without tags or fusion partners. Residues count along the entry.
UniProt Q63495, residues 23-402: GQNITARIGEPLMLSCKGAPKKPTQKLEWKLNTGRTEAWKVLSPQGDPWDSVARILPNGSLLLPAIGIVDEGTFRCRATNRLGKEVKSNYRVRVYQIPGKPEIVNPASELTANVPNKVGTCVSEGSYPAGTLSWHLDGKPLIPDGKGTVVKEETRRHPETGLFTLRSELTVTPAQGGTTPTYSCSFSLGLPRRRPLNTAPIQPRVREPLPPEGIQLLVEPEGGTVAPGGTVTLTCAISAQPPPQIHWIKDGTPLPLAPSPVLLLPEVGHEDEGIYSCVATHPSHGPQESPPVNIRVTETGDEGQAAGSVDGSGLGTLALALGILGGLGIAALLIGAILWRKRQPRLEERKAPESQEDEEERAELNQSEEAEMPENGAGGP

No constants are given. Whether binding was seen depends on the method and setting. Binding seen in cells or lysates may run through a third protein. Some results given as binding are weak or reduced against the parent protein; the word gives no strength.

B1: caspase-8 (enzyme, UniProt Q9JHX4 1-482)
chain: MDFHSCLYDIAERLGNEELAALKFLCLDHIPQKKQESINDVLVLFQRLQEEGMLEEDNLSFLKELLFHISRRDLLSRVLKSSPEEMVRELQVLGKAQVSAYRVMLFKLSEDMDKEDLKSFKFLLITEIPKCKLQDNSSLLDIFVEMEKRTILAENNLVTLKSICFRVNRSLLGRIDDYERSSTERRMSTEGGEELPVSVLDEVTIKMQDMWDSPGEQESESLNSDNVYQMKSKPRGYCLIFNNNNFSKAREDIPKLSNMRDRKGTNYDEEALSKTFKELHFEIVSFSDCTASQIHEVLVSYQSKDHKGKDCFICCILSHGDKGIVYGTDGKEASIYELTSYFTGSKCPSLAGKPKIFFIQACQGNNFQKAVPVPDETGLEQEHVLEEDSSSYKNYIPDEADFLLGMATVKNCVSYRDPTRGTWYIQSLCQSLRERCPRGEDILSILTGVNYDVSNKDNPRNMGKQMPQPIFTLRKKLFFPPN
For the molecule B1, the binding entry is listed as “binds”.
